{"source": "patent US7538129B2", "about": "“Diazonamide A analog” (Board of Regents, The University of Texas System, priority 2005, dated 2009)", "key": {"HCT116 xenografts": {"system": "HCT116 xenografts", "assay": "growth inhibition of HCT116 xenografts", "assay_type": "in vivo, mice", "details": "expected outcome of protocol, HCT116, 20 mg/kg IV q2d x6", "experimental": "Details of the preparation of murine models containing xenografts of HCT116 cells or PC-3 cells are described in the section following these examples. After the tumors were grown, therapy utilizing Compound J or paclitaxel was initiated. […] In FIG. 4A, the *'s represent control mice, the squares represent 5 mg/kg Compound J; the diamonds represent 20 mg/kg Compound J; and the slanted line represents 20 mg/kg paclitaxel.\nThe details of the protocol for Examples 19 and 20 are as follows: […]"}, "PC-3 xenografts": {"system": "PC-3 xenografts", "assay": "growth inhibition of PC-3 xenografts", "assay_type": "in vivo, mice", "details": "expected outcome of protocol, PC3, 20 mg/kg IV q2d x6", "experimental": "In FIG. 4B, the squares are the control, the dark circles are the data-points for Compound J and the light diamonds are data-points for paclitaxel.\nThe details of the protocol for Examples 19 and 20 are as follows:\n• PC3 prostrate tumor cells and HCT116 colon tumor cells (acquired from the tumor repository Division of Cancer Treatment and Diagnosis (DCTD) of the NCI • Complete RPMI Media • RPMI (Cat# 11875-085, Invitrogen) • 10% Heat-inactivated (30′ 56° C.) Fetal Bovine Serum (Cat# 100-106, Gemini Bio-Products • 2 mM L-glutamine (Cat# 25030-081, Invitrogen) • 0.1 mM MEM Non-Essential Amino Acids Solution (Cat#11140-050, Invitrogen) • 10 U/ml Penicillin/10 μg/ml Streptomycin (Cat#15140-122, Invitrogen) • 1 mM Sodium Pyruvate (Cat#l 1360-070) • Trypsin-EDTA (Cat#25300-054, Invitrogen) • Ca^2+/Mg^2+-free Phosphate Buffered Saline, 5% dextrose in water • Cell Culture Dish 150 mm×25 mm (Cat# 430599, Coming, Inc.) • 10 and 25 ml pipets, standard pipet-aid, p200 and p1000 pipette tips and standard pipetmen • Athymic NCr-nu/nu nude mice at 6-12 weeks of age, either sex (Strain code: 01B74, NCI Frederick Animal Production Program—suppliers include Charles River Labs and Taconic Farms). […]"}}, "note": "Some results were stated once for a whole list of compounds, not compound by compound."}
{"smiles": "CC(C)[C@H](O)C(=O)N[C@H]1Cc2ccc3c(c2)[C@]24C5=C(N=C(O5)[C@H](C(C)C)NC1=O)c1ncc(o1)-c1c[nH]c5cccc(c15)-c1cccc2c1NC4O3", "note": "(stereo in doubt) [Compound J]", "values": [{"measurement": "cures, % of mice", "setting": "HCT116 xenografts", "value": "40-80%"}, {"measurement": "cures, % of mice", "setting": "PC-3 xenografts", "value": "40-80%"}]}
